{"source": "PubChem BioAssay AID1347075", "about": "(National Center for Advancing Translational Sciences (NCATS), 2019)", "note": "The whole screen tested about 400,000 compounds, of which about 5,500 (1.4%) were called active. The shares of active, inactive and inconclusive entries below differ from those in the screen. Calls follow the shape of the dose curve; as a rule, active = well fitted cell-killing curve with a large enough effect; inconclusive = small, poorly fitted or top-dose-only effect, or effect the other way; inactive = flat fitted curve, though single readings scatter. A potency beside an inconclusive call is a rough fit, not a confirmed value. % is scaled to controls: 0 for no effect and ±100 for the full control effect; potency is read from the fitted curve at half-maximal effect.", "data": [{"experiment": "qHTS assay for MDR1-selective chemotherapeutics: Primary screen using the parental adenocarcinoma cell KB-3-1; also: nearly all actives have a fitted effect of over 60% in size", "conditions": "KB-3-1 viability, CellTiter-Glo ATP luminescence, 72 h; activity change, negative = cytotoxic: at 46.1 µM (top of the series)", "outline": "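Luminescent ATP read-out (CellTiter-Glo) measures survival of drug-naive KB-3-1 cells after 72 h compound exposure at 37 °C. Titration series was screened from lowest to highest concentration, with DMSO vehicle plates as background controls.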", "values": [{"smiles": "Cc1ccc(S(=O)(=O)N2CCN(C(=O)c3ccccc3OCc3c(C)noc3C)CC2)cc1", "Potency": "inconclusive: 29.1 µM [cytotoxic, single point]"}, {"smiles": "COc1ccc(C)cc1NC(=O)Cc1c(C(=O)O)c(C)cn1C", "activity change, negative = cytotoxic": "inconclusive: 5.19%"}, {"smiles": "O=C(N/N=C/c1ccc(O)cc1O)c1ccc(CN2C(=O)c3cccc4cccc2c34)cc1", "Potency": "inconclusive: 2.91 µM [cytotoxic, full curve]"}, {"smiles": "COCCNc1ccc(-c2nc(-c3ccccn3)no2)cc1[N+](=O)[O-]", "Potency": "inactive"}, {"smiles": "CC1(C(=O)NCc2ccccc2)Cc2c(-c3ccccc3)ccnc2O1", "note": "(stereo not given)", "Potency": "active: 20.6 µM"}, {"smiles": "Cc1nn(C)c(C)c1S(=O)(=O)N(CC(=O)NCCCN1CC(C)CC(C)C1)c1ccc(C(C)C)cc1", "note": "(stereo not given)", "Potency": "inactive"}, {"smiles": "O=C(Nc1ccccc1)Nc1ccc2ncoc2c1", "Potency": "inactive"}, {"smiles": "O=C(COc1ccccc1C(=O)NCc1ccccc1)Nc1ccc(Br)cc1", "Potency": "inconclusive: 14.6 µM [cytotoxic, partial curve, poor fit]"}, {"smiles": "COc1ccccc1C(=O)NCCNc1ccc([N+](=O)[O-])cc1Cl", "Potency": "inconclusive: 29.1 µM [rising, single point]"}, {"smiles": "O=C(NC1CCN(Cc2ccccc2)CC1)c1ccc(S(=O)(=O)NCc2ccco2)cc1", "Potency": "inconclusive: 14.6 µM [cytotoxic, partial curve, poor fit]"}, {"smiles": "CC(=O)Nc1cccc(NC(=O)C(=O)NCCc2csc3nc(-c4ccccc4F)nn23)c1", "Potency": "inactive"}, {"smiles": "Cc1cc(Cl)ccc1NC(=O)c1cc2ccccn2n1", "Potency": "inactive"}, {"smiles": "COc1ccc(N/C=C2\\CCc3ccccc3C2=O)cc1", "Potency": "inconclusive: 29.1 µM [cytotoxic, single point]"}, {"smiles": "NS(=O)(=O)c1ccc(CCNc2nc(C(F)(F)F)nc3ccccc23)cc1", "Potency": "inconclusive: 1.84 µM [cytotoxic, partial curve]"}, {"smiles": "CC1CCCN(CCCOc2ccc(Cl)cc2Br)C1", "note": "(stereo not given)", "Potency": "inconclusive: 29.1 µM [cytotoxic, single point]"}, {"smiles": "COCCCN1CCN(C2Cc3ccccc3Sc3ccc(Cl)cc32)CC1", "note": "(stereo not given)", "Potency": "inconclusive: 29.1 µM [cytotoxic, partial curve, poor fit]"}, {"smiles": "COc1ccc(-c2csc(C(C)(O)c3ccccc3)n2)cc1OC", "note": "(stereo not given)", "Potency": "inconclusive: 16.4 µM [cytotoxic, single point]"}, {"smiles": "COc1ccccc1N1CCN(S(=O)(=O)c2ccc(-c3cnc(C4CC4)o3)cc2)CC1", "Potency": "inconclusive: 20.6 µM [cytotoxic, single point]"}, {"smiles": "CCCCOc1ccc(C(=O)N(CC)CC(=O)NCc2cccs2)cc1", "Potency": "inconclusive: 20.6 µM [cytotoxic, single point]"}, {"smiles": "COc1ccc(C(=O)C[n+]2ccc3c(c2)nc(-c2ccc(OC)cc2OC)n3C)cc1", "Potency": "active: 14.6 µM"}, {"smiles": "COc1cc(OC)c(NC(=O)c2c3c(nc4ccccc24)C(=O)N(C2CCCCC2)C3)cc1Cl", "Potency": "inconclusive: 14.6 µM [cytotoxic, partial curve]"}, {"smiles": "COc1cc2c(cc1OC)C(COc1ccccc1OC)N(C(=O)c1ccccc1OC)CC2", "note": "(stereo not given)", "Potency": "inactive"}, {"smiles": "O=C(CSc1nnc(CNC(=O)c2ccco2)o1)Nc1ccc(Br)cc1", "Potency": "inactive"}, {"smiles": "O=C(NCC(c1ccco1)N1CCc2ccccc2C1)c1cccc([N+](=O)[O-])c1", "note": "(stereo not given)", "Potency": "inconclusive: 18.4 µM [rising, single point]"}, {"smiles": "O=C(Nc1nc2n(n1)C(c1ccc(F)cc1)C=C(c1ccccc1)N2)c1cccc([N+](=O)[O-])c1", "note": "(stereo not given)", "Potency": "inconclusive: 10.3 µM [cytotoxic, partial curve, poor fit]"}, {"smiles": "COc1c(Cl)cc(Cl)cc1CNCCSc1nnnn1C", "Potency": "inactive"}, {"smiles": "CCOC(=O)Cc1ccc(NC(=O)c2ccc(C(C)(C)C)cc2)cc1", "Potency": "inconclusive: 29.1 µM [cytotoxic, single point]"}, {"smiles": "O=C(N/N=C/c1ccc(N2CCOCC2)cc1)c1cccs1", "Potency": "inactive"}, {"smiles": "COc1cccc(C(=O)c2ccncc2C(=O)O)c1OC", "Potency": "inactive"}, {"smiles": "COc1ccccc1N1CN(S(=O)(=O)c2ccc(C)cc2)c2nc3ccccc3nc21", "Potency": "inactive"}, {"smiles": "Cc1ccc(OCCC(=O)N2CCN(c3ccc(O)cc3)CC2)cc1", "Potency": "inconclusive: 29.1 µM [cytotoxic, single point]"}, {"smiles": "Cc1cccc(OCCSc2nnc(-c3ccoc3C)n2C)c1", "Potency": "inactive"}, {"smiles": "Cc1cc(NC2=CC(=O)C(=O)c3ccccc32)no1", "Potency": "inconclusive: 20.6 µM [cytotoxic, single point]"}, {"smiles": "Nc1c(N(Cc2ccccc2)C(=O)COc2ccc([N+](=O)[O-])cc2)c(=O)[nH]c(=O)n1Cc1ccccc1", "Potency": "inconclusive: 5.8 µM [cytotoxic, full curve]"}, {"smiles": "Cn1c(=O)c2cc(NC(=O)Nc3cccnc3)ccc2n1-c1ccc(C(C)(C)C)cc1", "Potency": "inconclusive: 29.1 µM [cytotoxic, single point]"}, {"smiles": "CC(=O)c1ccc(OC2(C)CCN(Cc3ccc4ccccc4c3)C2)cc1", "note": "(stereo not given)", "Potency": "inactive"}, {"smiles": "S=C1NCCOCCNC(=S)NCCOCCOCCN1", "activity change, negative = cytotoxic": "inconclusive: 1.46%"}, {"smiles": "O=C1CCCN1CCCNc1nc2c(S(=O)(=O)c3ccc(Br)cc3)nnn2c2ccccc12", "Potency": "inconclusive: 25.9 µM [rising, single point]"}, {"smiles": "CN(C)c1ccc(/C=N/n2c(-c3ccccc3Br)n[nH]c2=S)cc1", "Potency": "inconclusive: 29.1 µM [rising, partial curve, poor fit]"}, {"smiles": "CCC1CCCCN1c1nc(-c2ccncc2)nc2ccccc12", "note": "(stereo not given)", "Potency": "inconclusive: 29.1 µM [cytotoxic, single point]"}, {"smiles": "COc1ccc(C(NC(=O)c2cccnc2)c2cc(Cl)c3cccnc3c2O)cc1OC", "note": "(stereo not given)", "Potency": "inconclusive: 10.3 µM [cytotoxic, partial curve]"}, {"smiles": "Cc1ccccc1CSCCNC(=O)CN(c1ccccc1)S(=O)(=O)N(C)C", "Potency": "inconclusive: 23.1 µM [cytotoxic, single point]"}, {"smiles": "CCn1nnc2cc(C(=O)Nc3cccc(C)c3C)ccc21", "Potency": "inconclusive: 25.9 µM [cytotoxic, single point]"}, {"smiles": "O=C(CCS(=O)(=O)c1ccccc1)Nc1nnc(C(F)(F)F)s1", "Potency": "inconclusive: 29.1 µM [cytotoxic, single point]"}, {"smiles": "Cc1cccc(Oc2ccc(NC(=O)CCC(=O)OCC(=O)c3ccc(Br)cc3)cc2)c1C", "Potency": "inactive"}]}]}
